Record: PubChem BioAssay AID504808 (Drosophila RNAi Screening Center, 2011)

- Aim: 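Chromatin factors that keep E2F targets switched off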 (primary screen)
- System: Drosophila S2 cells
- Reagent: long dsRNA against Drosophila genes
- Measured: 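Firefly luciferase driven by E2F sites, normalised to Renilla luciferase on the same minimal promoter, measured by plate reader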
- Scale: E2F firefly: higher = more E2F reporter activity; Renilla normaliser: higher = more normaliser reporter signal
- Call rule: 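Called active if the normalised E2F reporter went up by over 50%; the cutoff is arbitrary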
In all, the deposit lists about 21,000 reagents; shown is an unselected part of those that have a named target and a result. Of all reagents, 18 (0.084%) got an active call. 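Raw counts without plate normalisation, one of two replicates; the ratio scores behind the calls were not deposited.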 Entries without a mark were called inactive. Names joined by + are all predicted targets of the reagent. Not given: the amount of reagent, the time to read-out.

The first 2 records, to show the layout:
wuc (Wake-up-call) [DRSC06152]
- E2F firefly, rep 1: 97692
- Renilla normaliser, rep 1: 3618

Cyp4ae1 (Cytochrome P450 4ae1) [DRSC18455]
- E2F firefly, rep 1: 1838
- Renilla normaliser, rep 1: 856

Main list, from the first entry:
wuc (Wake-up-call) [DRSC06152]
- E2F firefly, rep 1: 97692
- Renilla normaliser, rep 1: 3618

Cyp4ae1 (Cytochrome P450 4ae1) [DRSC18455]
- E2F firefly, rep 1: 1838
- Renilla normaliser, rep 1: 856

CG7094 [DRSC03005]
- E2F firefly, rep 1: 1.11e5
- Renilla normaliser, rep 1: 4512

CG6479 [DRSC10647]
- E2F firefly, rep 1: 63609
- Renilla normaliser, rep 1: 3208

CG11626 [DRSC14336]
- E2F firefly, rep 1: 1.37e5
- Renilla normaliser, rep 1: 6578

CG1394 [DRSC19539]
- E2F firefly, rep 1: 1.10e5
- Renilla normaliser, rep 1: 5061

RpS5a (Ribosomal protein S5a) [DRSC20282]
- E2F firefly, rep 1: 1.57e5
- Renilla normaliser, rep 1: 5609

CG32333 [DRSC08627]
- E2F firefly, rep 1: 79766
- Renilla normaliser, rep 1: 3562

CG32333 [DRSC08629]
- E2F firefly, rep 1: 89075
- Renilla normaliser, rep 1: 4516

Dhc62B (Dynein heavy chain at 62B) [DRSC08655]
- E2F firefly, rep 1: 93934
- Renilla normaliser, rep 1: 4030

CG1724 [DRSC20548]
- E2F firefly, rep 1: 1.33e5
- Renilla normaliser, rep 1: 6116

Actn3 (alpha actinin 3) [DRSC14106]
- E2F firefly, rep 1: 1.24e5
- Renilla normaliser, rep 1: 5990

CG11583 [DRSC08202]
- E2F firefly, rep 1: 53501
- Renilla normaliser, rep 1: 3454

Ir75a (Ionotropic receptor 75a) [DRSC10188]
- E2F firefly, rep 1: 1.53e5
- Renilla normaliser, rep 1: 8308

CG12655 [DRSC20678]
- E2F firefly, rep 1: 1.39e5
- Renilla normaliser, rep 1: 6533

slgA (sluggish A) [DRSC20586]
- E2F firefly, rep 1: 1.53e5
- Renilla normaliser, rep 1: 5702

CG6683 [DRSC10694]
- E2F firefly, rep 1: 76321
- Renilla normaliser, rep 1: 3090

CG9044 [DRSC03130]
- E2F firefly, rep 1: 77505
- Renilla normaliser, rep 1: 3468

Ugt49B2 (UDP-glycosyltransferase family 49 member B2) [DRSC16049]
- E2F firefly, rep 1: 1.46e5
- Renilla normaliser, rep 1: 7333

Prx1 (Peroxiredoxin 1) [DRSC10741]
- E2F firefly, rep 1: 1.57e5
- Renilla normaliser, rep 1: 8491

l(1)sc (lethal of scute) [DRSC18789]
- E2F firefly, rep 1: 42586
- Renilla normaliser, rep 1: 3964

Cyp9f2 (Cytochrome P450 9f2) [DRSC16635]
- E2F firefly, rep 1: 70240
- Renilla normaliser, rep 1: 3270

CG6836 [DRSC10722]
- E2F firefly, rep 1: 79690
- Renilla normaliser, rep 1: 3459

CG14174 [DRSC10175]
- E2F firefly, rep 1: 1.29e5
- Renilla normaliser, rep 1: 6818

CG32523 [DRSC20510]
- E2F firefly, rep 1: 1.42e5
- Renilla normaliser, rep 1: 6981

Taldo (Transaldolase) [DRSC04320]
- E2F firefly, rep 1: 90670
- Renilla normaliser, rep 1: 3936

Mfe2 (peroxisomal Multifunctional enzyme type 2) [DRSC19869]
- E2F firefly, rep 1: 8006
- Renilla normaliser, rep 1: 788

ebd1 (earthbound 1) [DRSC08565]
- E2F firefly, rep 1: 87278
- Renilla normaliser, rep 1: 3580

lectin-37Da [DRSC03278]
- E2F firefly, rep 1: 99208
- Renilla normaliser, rep 1: 4653

CR14117 (pseudo) [DRSC10121]
- E2F firefly, rep 1: 1.55e5
- Renilla normaliser, rep 1: 8722

CG43693 [DRSC09086]
- E2F firefly, rep 1: 1.43e5
- Renilla normaliser, rep 1: 4131

CG43693 [DRSC10625]
- E2F firefly, rep 1: 74428
- Renilla normaliser, rep 1: 3463

CG2247 [DRSC19844]
- E2F firefly, rep 1: 8515
- Renilla normaliser, rep 1: 876

CG12974 [DRSC11684]
- E2F firefly, rep 1: 1.38e5
- Renilla normaliser, rep 1: 7214

CG8701 [DRSC07237]
- E2F firefly, rep 1: 2707
- Renilla normaliser, rep 1: 218

Obp47b + CG7741 [DRSC06330]
- E2F firefly, rep 1: 1.09e5
- Renilla normaliser, rep 1: 4328
